Data as given in paper PMC11300639.

Chains of the proteins cited; added tags and fusions are not shown.
UniProt Q9BY78: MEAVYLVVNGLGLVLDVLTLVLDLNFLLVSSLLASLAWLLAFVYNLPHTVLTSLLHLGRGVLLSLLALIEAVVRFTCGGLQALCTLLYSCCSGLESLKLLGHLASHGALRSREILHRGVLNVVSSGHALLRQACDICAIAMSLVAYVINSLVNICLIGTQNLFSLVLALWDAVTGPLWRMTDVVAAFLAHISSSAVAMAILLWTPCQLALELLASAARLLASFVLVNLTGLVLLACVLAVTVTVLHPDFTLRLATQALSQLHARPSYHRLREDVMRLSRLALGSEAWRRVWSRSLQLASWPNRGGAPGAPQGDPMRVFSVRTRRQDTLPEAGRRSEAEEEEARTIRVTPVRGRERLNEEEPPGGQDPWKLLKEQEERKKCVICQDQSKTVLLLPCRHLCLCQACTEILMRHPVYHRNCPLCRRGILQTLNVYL

Molecular target: T1, TSC1 (human (endogenous in 786-O and A498)) (UniProt Q92574)
T1 sequence: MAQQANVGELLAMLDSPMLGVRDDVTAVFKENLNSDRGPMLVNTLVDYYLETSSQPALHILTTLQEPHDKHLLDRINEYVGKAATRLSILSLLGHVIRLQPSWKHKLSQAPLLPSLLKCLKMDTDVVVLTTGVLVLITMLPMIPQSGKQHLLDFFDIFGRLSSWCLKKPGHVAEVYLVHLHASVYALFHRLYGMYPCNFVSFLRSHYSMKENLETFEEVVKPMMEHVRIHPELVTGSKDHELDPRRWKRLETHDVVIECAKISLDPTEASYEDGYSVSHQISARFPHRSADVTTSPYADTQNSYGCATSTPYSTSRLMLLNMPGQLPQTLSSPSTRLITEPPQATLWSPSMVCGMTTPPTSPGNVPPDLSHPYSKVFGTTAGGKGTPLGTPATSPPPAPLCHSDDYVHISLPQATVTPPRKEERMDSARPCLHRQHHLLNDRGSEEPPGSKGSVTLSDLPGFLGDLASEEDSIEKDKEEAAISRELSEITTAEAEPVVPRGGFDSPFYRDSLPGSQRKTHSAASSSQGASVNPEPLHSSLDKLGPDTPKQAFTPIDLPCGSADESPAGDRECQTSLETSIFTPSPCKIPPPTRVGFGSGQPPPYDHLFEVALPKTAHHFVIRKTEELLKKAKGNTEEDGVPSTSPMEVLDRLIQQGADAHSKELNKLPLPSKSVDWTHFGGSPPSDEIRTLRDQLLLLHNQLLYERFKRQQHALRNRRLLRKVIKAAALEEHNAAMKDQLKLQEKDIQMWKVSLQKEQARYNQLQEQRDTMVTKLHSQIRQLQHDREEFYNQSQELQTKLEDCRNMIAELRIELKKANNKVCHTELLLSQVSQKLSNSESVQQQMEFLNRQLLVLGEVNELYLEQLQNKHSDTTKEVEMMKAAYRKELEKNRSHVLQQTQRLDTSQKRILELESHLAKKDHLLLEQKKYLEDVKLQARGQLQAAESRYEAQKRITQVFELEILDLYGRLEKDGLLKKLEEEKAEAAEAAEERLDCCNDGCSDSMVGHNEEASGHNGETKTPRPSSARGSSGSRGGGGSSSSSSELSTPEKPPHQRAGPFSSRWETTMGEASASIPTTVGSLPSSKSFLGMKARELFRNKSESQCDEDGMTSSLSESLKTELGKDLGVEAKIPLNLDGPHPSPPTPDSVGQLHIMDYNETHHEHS
Assay: affinity purification with mass spectrometry; 786-O cells treated with or without Palbociclib (5 uM) for 24 h; immunoprecipitation with IgG or TSC1 antibodies, mass spectrometry; Z score

- binding: binds
Substance: RING finger protein 26 (RNF26) (from UniProt Q9BY78 1-433)

These are yes or no findings as the source states them, for the method shown. In cells and extracts the contact can be indirect. A yes stands for co-enrichment or nearness to the bait. Other partners may have been found.
